Assay results as given in PMC6962326.

Amino acid sequences for entries named in this document (tags omitted).
UniProt P10238: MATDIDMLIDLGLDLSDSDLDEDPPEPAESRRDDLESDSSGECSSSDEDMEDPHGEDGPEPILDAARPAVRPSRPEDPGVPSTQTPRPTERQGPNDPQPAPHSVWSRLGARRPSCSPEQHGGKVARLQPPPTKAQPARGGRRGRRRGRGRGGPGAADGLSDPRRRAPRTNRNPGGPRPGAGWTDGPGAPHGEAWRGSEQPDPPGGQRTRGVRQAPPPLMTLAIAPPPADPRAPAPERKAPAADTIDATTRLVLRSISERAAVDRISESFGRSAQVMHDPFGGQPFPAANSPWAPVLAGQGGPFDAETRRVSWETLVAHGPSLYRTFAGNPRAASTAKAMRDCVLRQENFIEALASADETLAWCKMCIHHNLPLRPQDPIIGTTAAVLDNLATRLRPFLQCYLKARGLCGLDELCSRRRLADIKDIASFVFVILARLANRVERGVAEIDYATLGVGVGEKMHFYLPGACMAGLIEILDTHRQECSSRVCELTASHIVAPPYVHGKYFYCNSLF
UniProt O95639: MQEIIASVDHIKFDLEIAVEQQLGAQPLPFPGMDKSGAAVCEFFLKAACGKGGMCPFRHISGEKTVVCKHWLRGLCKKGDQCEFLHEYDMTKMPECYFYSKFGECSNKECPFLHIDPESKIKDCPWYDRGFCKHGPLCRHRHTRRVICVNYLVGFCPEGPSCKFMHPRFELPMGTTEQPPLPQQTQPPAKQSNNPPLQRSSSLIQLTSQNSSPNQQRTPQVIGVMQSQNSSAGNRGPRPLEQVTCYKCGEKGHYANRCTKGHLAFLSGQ
UniProt P11940: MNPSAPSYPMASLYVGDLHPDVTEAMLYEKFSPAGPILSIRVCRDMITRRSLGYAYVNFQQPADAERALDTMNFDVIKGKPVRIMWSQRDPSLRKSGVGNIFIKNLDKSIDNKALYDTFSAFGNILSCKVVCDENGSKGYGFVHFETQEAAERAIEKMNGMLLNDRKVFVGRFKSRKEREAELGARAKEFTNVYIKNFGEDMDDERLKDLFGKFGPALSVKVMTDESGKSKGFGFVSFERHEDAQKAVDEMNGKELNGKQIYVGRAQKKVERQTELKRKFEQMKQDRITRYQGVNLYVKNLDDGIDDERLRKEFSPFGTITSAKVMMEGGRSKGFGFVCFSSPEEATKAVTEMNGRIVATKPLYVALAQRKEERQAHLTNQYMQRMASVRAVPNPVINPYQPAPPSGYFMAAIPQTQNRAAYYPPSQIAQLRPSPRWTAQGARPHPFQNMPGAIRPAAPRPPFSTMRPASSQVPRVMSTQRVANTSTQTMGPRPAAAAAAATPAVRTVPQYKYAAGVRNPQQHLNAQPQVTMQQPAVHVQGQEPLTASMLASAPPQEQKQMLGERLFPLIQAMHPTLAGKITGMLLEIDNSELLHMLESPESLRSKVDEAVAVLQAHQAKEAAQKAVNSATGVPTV

B1: CPSF73, endogenous (protein, UniProt Q9UKF6 1-684)
chain: MSAIPAEESDQLLIRPLGAGQEVGRSCIILEFKGRKIMLDCGIHPGLEGMDALPYIDLIDPAEIDLLLISHFHLDHCGALPWFLQKTSFKGRTFMTHATKAIYRWLLSDYVKVSNISADDMLYTETDLEESMDKIETINFHEVKEVAGIKFWCYHAGHVLGAAMFMIEIAGVKLLYTGDFSRQEDRHLMAAEIPNIKPDILIIESTYGTHIHEKREEREARFCNTVHDIVNRGGRGLIPVFALGRAQELLLILDEYWQNHPELHDIPIYYASSLAKKCMAVYQTYVNAMNDKIRKQININNPFVFKHISNLKSMDHFDDIGPSVVMASPGMMQSGLSRELFESWCTDKRNGVIIAGYCVEGTLAKHIMSEPEEITTMSGQKLPLKMSVDYISFSAHTDYQQTSEFIRALKPPHVILVHGEQNEMARLKAALIREYEDNDEVHIEVHNPRNTEAVTLNFRGEKLAKVMGFLADKKPEQGQRVSGILVKRNFNYHILSPCDLSNYTDLAMSTVKQTQAIPYTGPFNLLCYQLQKLTGDVEELEIQEKPALKVFKNITVIQEPGMVVLEWLANPSNDMYADTVTTVILEVQSNPKIRKGAVQKVSKKLEMHVYSKRLEIMLQDIFGEDCVSVKDDSILSVTVDGKTANLNLETRTVECEEGSEDDESLREMVELAAQRLYEALTPVH
B2: Fip1, endogenous (protein, UniProt Q6UN15 1-594)
chain: MSAGEVERLVSELSGGTGGDEEEEWLYGGPWDVHVHSDLAKDLDENEVERPEEENASANPPSGIEDETAENGVPKPKVTETEDDSDSDSDDDEDDVHVTIGDIKTGAPQYGSYGTAPVNLNIKTGGRVYGTTGTKVKGVDLDAPGSINGVPLLEVDLDSFEDKPWRKPGADLSDYFNYGFNEDTWKAYCEKQKRIRMGLEVIPVTSTTNKITAEDCTMEVTPGAEIQDGRFNLFKVQQGRTGNSEKETALPSTKAEFTSPPSLFKTGLPPSRNSTSSQSQTSTASRKANSSVGKWQDRYGRAESPDLRRLPGAIDVIGQTITISRVEGRRRANENSNIQVLSERSATEVDNNFSKPPPFFPPGAPPTHLPPPPFLPPPPTVSTAPPLIPPPGFPPPPGAPPPSLIPTIESGHSSGYDSRSARAFPYGNVAFPHLPGSAPSWPSLVDTSKQWDYYARREKDRDRERDRDRERDRDRDRERERTRERERERDHSPTPSVFNSDEERYRYREYAERGYERHRASREKEERHRERRHREKEETRHKSSRSNSRRRHESEEGDSHRRHKHKKSKRSKEGKEAGSEPAPEQESTEATPAE
B3: CPSF160, endogenous (protein, UniProt Q10570 1-1443)
chain: MYAVYKQAHPPTGLEFSMYCNFFNNSERNLVVAGTSQLYVYRLNRDAEALTKNDRSTEGKAHREKLELAASFSFFGNVMSMASVQLAGAKRDALLLSFKDAKLSVVEYDPGTHDLKTLSLHYFEEPELRDGFVQNVHTPRVRVDPDGRCAAMLVYGTRLVVLPFRRESLAEEHEGLVGEGQRSSFLPSYIIDVRALDEKLLNIIDLQFLHGYYEPTLLILFEPNQTWPGRVAVRQDTCSIVAISLNITQKVHPVIWSLTSLPFDCTQALAVPKPIGGVVVFAVNSLLYLNQSVPPYGVALNSLTTGTTAFPLRTQEGVRITLDCAQATFISYDKMVISLKGGEIYVLTLITDGMRSVRAFHFDKAAASVLTTSMVTMEPGYLFLGSRLGNSLLLKYTEKLQEPPASAVREAADKEEPPSKKKRVDATAGWSAAGKSVPQDEVDEIEVYGSEAQSGTQLATYSFEVCDSILNIGPCANAAVGEPAFLSEEFQNSPEPDLEIVVCSGHGKNGALSVLQKSIRPQVVTTFELPGCYDMWTVIAPVRKEEEDNPKGEGTEQEPSTTPEADDDGRRHGFLILSREDSTMILQTGQEIMELDTSGFATQGPTVFAGNIGDNRYIVQVSPLGIRLLEGVNQLHFIPVDLGAPIVQCAVADPYVVIMSAEGHVTMFLLKSDSYGGRHHRLALHKPPLHHQSKVITLCLYRDLSGMFTTESRLGGARDELGGRSGPEAEGLGSETSPTVDDEEEMLYGDSGSLFSPSKEEARRSSQPPADRDPAPFRAEPTHWCLLVRENGTMEIYQLPDWRLVFLVKNFPVGQRVLVDSSFGQPTTQGEARREEATRQGELPLVKEVLLVALGSRQSRPYLLVHVDQELLIYEAFPHDSQLGQGNLKVRFKKVPHNINFREKKPKPSKKKAEGGGAEEGAGARGRVARFRYFEDIYGYSGVFICGPSPHWLLVTGRGALRLHPMAIDGPVDSFAPFHNVNCPRGFLYFNRQGELRISVLPAYLSYDAPWPVRKIPLRCTAHYVAYHVESKVYAVATSTNTPCARIPRMTGEEKEFETIERDERYIHPQQEAFSIQLISPVSWEAIPNARIELQEWEHVTCMKTVSLRSEETVSGLKGYVAAGTCLMQGEEVTCRGRILIMDVIEVVPEPGQPLTKNKFKVLYEKEQKGPVTALCHCNGHLVSAIGQKIFLWSLRASELTGMAFIDTQLYIHQMISVKNFILAADVMKSISLLRYQEESKTLSLVSRDAKPLEVYSVDFMVDNAQLGFLVSDRDRNLMVYMYLPEAKESFGGMRLLRRADFHVGAHVNTFWRTPCRGATEGLSKKSVVWENKHITWFATLDGGIGLLLPMQEKTYRRLLMLQNALTTMLPHHAGLNPRAFRMLHVDRRTLQNAVRNVLDGELLNRYLYLSTMERSELAKKIGTTPDIILDDLLETDRVTAHF
B4: Symplekin, endogenous (protein, UniProt Q92797 1-1274)
chain: MASGSGDSVTRRSVASQFFTQEEGPGIDGMTTSERVVDLLNQAALITNDSKITVLKQVQELIINKDPTLLDNFLDEIIAFQADKSIEVRKFVIGFIEEACKRDIELLLKLIANLNMLLRDENVNVVKKAILTMTQLYKVALQWMVKSRVISELQEACWDMVSAMAGDIILLLDSDNDGIRTHAIKFVEGLIVTLSPRMADSEIPRRQEHDISLDRIPRDHPYIQYNVLWEEGKAALEQLLKFMVHPAISSINLTTALGSLANIARQRPMFMSEVIQAYETLHANLPPTLAKSQVSSVRKNLKLHLLSVLKHPASLEFQAQITTLLVDLGTPQAEIARNMPSSKDTRKRPRDDSDSTLKKMKLEPNLGEDDEDKDLEPGPSGTSKASAQISGQSDTDITAEFLQPLLTPDNVANLVLISMVYLPEAMPASFQAIYTPVESAGTEAQIKHLARLMATQMTAAGLGPGVEQTKQCKEEPKEEKVVKTESVLIKRRLSAQGQAISVVGSLSSMSPLEEEAPQAKRRPEPIIPVTQPRLAGAGGRKKIFRLSDVLKPLTDAQVEAMKLGAVKRILRAEKAVACSGAAQVRIKILASLVTQFNSGLKAEVLSFILEDVRARLDLAFAWLYQEYNAYLAAGASGSLDKYEDCLIRLLSGLQEKPDQKDGIFTKVVLEAPLITESALEVVRKYCEDESRTYLGMSTLRDLIFKRPSRQFQYLHVLLDLSSHEKDKVRSQALLFIKRMYEKEQLREYVEKFALNYLQLLVHPNPPSVLFGADKDTEVAAPWTEETVKQCLYLYLALLPQNHKLIHELAAVYTEAIADIKRTVLRVIEQPIRGMGMNSPELLLLVENCPKGAETLVTRCLHSLTDKVPPSPELVKRVRDLYHKRLPDVRFLIPVLNGLEKKEVIQALPKLIKLNPIVVKEVFNRLLGTQHGEGNSALSPLNPGELLIALHNIDSVKCDMKSIIKATNLCFAERNVYTSEVLAVVMQQLMEQSPLPMLLMRTVIQSLTMYPRLGGFVMNILSRLIMKQVWKYPKVWEGFIKCCQRTKPQSFQVILQLPPQQLGAVFDKCPELREPLLAHVRSFTPHQQAHIPNSIMTILEASGKQEPEAKEAPAGPLEEDDLEPLTLAPAPAPRPPQDLIGLRLAQEKALKRQLEEEQKLKPGGVGAPSSSSPSPSPSARPGPPPSEEAMDFREEGPECETPGIFISMDDDSGLTEAALLDSSLEGPLPKETAAGGLTLKEERSPQTLAPVGEDAMKTPSPAAEDAREPEAKGNS

How the values were obtained:
[1] = molecular target: HSV-1 immediate early protein ICP27, expressed from wild-type HSV-1 in infected cells (herpes simplex virus-1 (KOS)) (UniProt P10238); experiment: affinity purification with mass spectrometry; ICP27 immunoprecipitated from lysates of WT HSV-1-infected HeLa cells; control: cells infected with the ICP27 null mutant 27LacZ; lysates treated with RNase A/T1 before IP
[2] = molecular target: Flag-tagged wild-type ICP27 (herpes simplex virus-1) (UniProt P10238); experiment: co-IP + affinity purification with mass spectrometry; ICP27 immunoprecipitated after transient transfection in 293T cells (no other viral proteins); IP samples analysed by mass spectrometry and western blotting

Molecule | binding [1] | binding [2]
CPSF30, endogenous (from UniProt O95639 1-269) | binds | 
PABP1, endogenous (from UniProt P11940 1-636) | binds | 
B1 | binds | 
B2 | binds | 
B3 | binds | 
B4 |  | no binding

These are yes or no findings as the source states them, for the method shown. Binding seen in cells or lysates may run through a third protein. A yes stands for co-enrichment or nearness to the bait. Other partners may have been found. For part of these data: No binding means not detected with the bait.
